Results are given in words; binding and its absence hold for the method and conditions named. In cells and extracts the contact can be indirect. Some binding calls cover weakened binding; strength is not graded here.

Sequences of proteins named here, by UniProt entry; tags and fusion partners are left off.
UniProt P42227: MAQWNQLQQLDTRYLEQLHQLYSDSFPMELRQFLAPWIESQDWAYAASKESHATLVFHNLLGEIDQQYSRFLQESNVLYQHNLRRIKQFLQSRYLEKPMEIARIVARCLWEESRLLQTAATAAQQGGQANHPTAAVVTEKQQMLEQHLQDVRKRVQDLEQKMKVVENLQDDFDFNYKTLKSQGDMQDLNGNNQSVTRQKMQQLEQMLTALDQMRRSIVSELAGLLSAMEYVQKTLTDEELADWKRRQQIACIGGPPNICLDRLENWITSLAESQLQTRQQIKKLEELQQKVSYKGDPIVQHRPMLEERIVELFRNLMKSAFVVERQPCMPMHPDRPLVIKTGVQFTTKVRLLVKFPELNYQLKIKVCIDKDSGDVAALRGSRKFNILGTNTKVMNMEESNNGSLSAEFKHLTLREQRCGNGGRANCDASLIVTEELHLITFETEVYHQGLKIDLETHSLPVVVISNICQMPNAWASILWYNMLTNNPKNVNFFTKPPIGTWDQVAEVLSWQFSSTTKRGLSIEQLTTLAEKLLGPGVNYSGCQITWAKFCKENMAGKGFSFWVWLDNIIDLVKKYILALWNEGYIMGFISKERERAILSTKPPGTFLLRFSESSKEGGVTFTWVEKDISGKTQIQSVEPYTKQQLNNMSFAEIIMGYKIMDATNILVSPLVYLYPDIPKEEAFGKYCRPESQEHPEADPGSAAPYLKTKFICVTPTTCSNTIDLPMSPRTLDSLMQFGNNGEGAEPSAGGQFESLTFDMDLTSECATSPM
UniProt Q08775: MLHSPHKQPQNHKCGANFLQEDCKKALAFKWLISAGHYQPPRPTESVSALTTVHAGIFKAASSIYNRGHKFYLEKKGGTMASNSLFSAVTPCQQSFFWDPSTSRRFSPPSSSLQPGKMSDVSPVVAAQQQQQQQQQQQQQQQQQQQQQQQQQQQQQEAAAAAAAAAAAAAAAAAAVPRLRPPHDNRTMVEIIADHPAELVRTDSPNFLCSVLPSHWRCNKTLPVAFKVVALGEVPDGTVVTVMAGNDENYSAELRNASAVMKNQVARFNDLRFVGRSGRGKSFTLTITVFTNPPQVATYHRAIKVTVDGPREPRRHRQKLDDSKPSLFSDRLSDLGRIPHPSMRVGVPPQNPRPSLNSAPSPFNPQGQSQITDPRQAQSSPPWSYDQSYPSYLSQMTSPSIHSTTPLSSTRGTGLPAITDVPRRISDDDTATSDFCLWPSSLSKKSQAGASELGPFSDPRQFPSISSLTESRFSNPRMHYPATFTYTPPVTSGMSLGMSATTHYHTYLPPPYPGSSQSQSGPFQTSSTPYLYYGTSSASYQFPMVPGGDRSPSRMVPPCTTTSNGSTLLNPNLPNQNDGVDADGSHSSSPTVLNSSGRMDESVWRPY

The results in this text go back to publication PMC7048209.

For this experiment, the target named is Flag-STAT3 (UniProt P42227). Kind of experiment: co-IP; Flag-STAT3 and HA-Runx2 plasmids co-transfected into 293T cells; after 48 hours whole cell lysates immunoprecipitated by Flag antibody at 4°C overnight; Western blotting with anti-HA and anti-Flag. (In western blotting, separated proteins are transferred to a membrane and probed.)

Take HA-Runx2 (from UniProt Q08775 1-607): the binding result is on record as “binds”.
